Reference: doi:10.1101/2025.04.01.645927
These are yes or no findings as the source states them, for the method shown. Binding seen in cells or lysates may run through a third protein. Some entries that bind do so weakly or less than the wild type.

T1: VE-cadherin (human (endogenous in hMVECs)), P33151
T1 chain: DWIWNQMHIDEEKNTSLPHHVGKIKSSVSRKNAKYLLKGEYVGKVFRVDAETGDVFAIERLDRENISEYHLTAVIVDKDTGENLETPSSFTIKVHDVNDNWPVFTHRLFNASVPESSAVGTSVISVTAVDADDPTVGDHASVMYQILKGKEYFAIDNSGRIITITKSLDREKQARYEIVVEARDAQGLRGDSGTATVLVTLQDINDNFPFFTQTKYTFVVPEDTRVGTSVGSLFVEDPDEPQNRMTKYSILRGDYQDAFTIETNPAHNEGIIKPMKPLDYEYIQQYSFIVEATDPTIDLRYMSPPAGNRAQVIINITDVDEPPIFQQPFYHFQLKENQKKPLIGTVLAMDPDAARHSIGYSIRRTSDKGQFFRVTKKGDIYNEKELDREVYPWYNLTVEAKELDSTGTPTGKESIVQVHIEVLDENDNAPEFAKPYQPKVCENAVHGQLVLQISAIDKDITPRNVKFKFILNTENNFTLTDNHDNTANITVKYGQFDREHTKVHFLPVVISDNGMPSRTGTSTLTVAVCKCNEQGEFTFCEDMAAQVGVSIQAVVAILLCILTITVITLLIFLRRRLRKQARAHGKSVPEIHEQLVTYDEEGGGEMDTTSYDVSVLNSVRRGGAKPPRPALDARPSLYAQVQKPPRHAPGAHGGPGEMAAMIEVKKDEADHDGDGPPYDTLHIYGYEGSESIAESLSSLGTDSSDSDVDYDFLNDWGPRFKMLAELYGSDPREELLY

T2: VE-cadherin (human (endogenous in hMVECs)) (UniProt P33151)
T2 sequence: T1 chain

B1: β-catenin, P35222 1-781 (protein)
chain: MATQADLMELDMAMEPDRKAAVSHWQQQSYLDSGIHSGATTTAPSLSGKGNPEEEDVDTSQVLYEWEQGFSQSFTQEQVADIDGQYAMTRAQRVRAAMFPETLDEGMQIPSTQFDAAHPTNVQRLAEPSQMLKHAVVNLINYQDDAELATRAIPELTKLLNDEDQVVVNKAAVMVHQLSKKEASRHAIMRSPQMVSAIVRTMQNTNDVETARCTAGTLHNLSHHREGLLAIFKSGGIPALVKMLGSPVDSVLFYAITTLHNLLLHQEGAKMAVRLAGGLQKMVALLNKTNVKFLAITTDCLQILAYGNQESKLIILASGGPQALVNIMRTYTYEKLLWTTSRVLKVLSVCSSNKPAIVEAGGMQALGLHLTDPSQRLVQNCLWTLRNLSDAATKQEGMEGLLGTLVQLLGSDDINVVTCAAGILSNLTCNNYKNKMMVCQVGGIEALVRTVLRAGDREDITEPAICALRHLTSRHQEAEMAQNAVRLHYGLPVVVKLLHPPSHWPLIKATVGLIRNLALCPANHAPLREQGAIPRLVQLLVRAHQDTQRRTSMGGTQQQFVEGVRMEEIVEGCTGALHILARDVHNRIVIRGLNTIPLFVQLLYSPIENIQRVAAGVLCELAQDKEAAEAIEAEGATAPLTELLHSRNEGVATYAAAVLFRMSEDKPQDYKKRLSVELTSSLFRTEPMAWNETADLGLDIGAQGEPLGYRQDDPSYRSFHSGGYGQDALGMDPMMEHEMGGHHPGADYPVDGLPDLGHAQDLMDGLPPGDSNQLAWFDTDL
B2: p120 catenin (protein, UniProt O60716 1-968)
chain: MDDSEVESTASILASVKEQEAQFEKLTRALEEERRHVSAQLERVRVSPQDANPLMANGTLTRRHQNGRFVGDADLERQKFSDLKLNGPQDHSHLLYSTIPRMQEPGQIVETYTEEDPEGAMSVVSVETSDDGTTRRTETTVKKVVKTVTTRTVQPVAMGPDGLPVDASSVSNNYIQTLGRDFRKNGNGGPGPYVGQAGTATLPRNFHYPPDGYSRHYEDGYPGGSDNYGSLSRVTRIEERYRPSMEGYRAPSRQDVYGPQPQVRVGGSSVDLHRFHPEPYGLEDDQRSMGYDDLDYGMMSDYGTARRTGTPSDPRRRLRSYEDMIGEEVPSDQYYWAPLAQHERGSLASLDSLRKGGPPPPNWRQPELPEVIAMLGFRLDAVKSNAAAYLQHLCYRNDKVKTDVRKLKGIPVLVGLLDHPKKEVHLGACGALKNISFGRDQDNKIAIKNCDGVPALVRLLRKARDMDLTEVITGTLWNLSSHDSIKMEIVDHALHALTDEVIIPHSGWEREPNEDCKPRHIEWESVLTNTAGCLRNVSSERSEARRKLRECDGLVDALIFIVQAEIGQKDSDSKLVENCVCLLRNLSYQVHREIPQAERYQEAAPNVANNTGPHAASCFGAKKGKDEWFSRGKKPIEDPANDTVDFPKRTSPARGYELLFQPEVVRIYISLLKESKTPAILEASAGAIQNLCAGRWTYGRYIRSALRQEKALSAIADLLTNEHERVVKAASGALRNLAVDARNKELIGKHAIPNLVKNLPGGQQNSSWNFSEDTVISILNTINEVIAENLEAAKKLRETQGIEKLVLINKSGNRSEKEVRAAALVLQTIWGYKELRKPLEKEGWKKSDFQVNLNNASRSQSSHSYDDSTLPLIDRNQKSDKKPDREEIQMSNMGSNTKSLDNNYSTPNERGDHNRTLDRSGDLGDMEPLKGTTPLMQDEGQESLEEELDVLVLDDEGGQVSYPSMQKI

Columns and labels:
[1] = biological target: T1, VE-cadherin (human (endogenous in …)); assay: co-IP; settings: remark: other sources report otherwise
[2] = biological target: T2, VE-cadherin (human (endogenous in hMVECs)); assay: co-IP

| Binder | binding [1] | binding [2] |
| --- | --- | --- |
| B1 | binds |  |
| B2 |  | binds |
